Test results reported in paper PMC12643979.
No constants are given. Whether binding was seen depends on the method and setting. In cells and extracts the contact can be indirect. Some entries that bind do so weakly or less than the wild type. Sequences can lack the tags named with a protein.

Tests used:
Test in all cases: co-IP; HeLa cells co-transfected with FLAG-TBC1D9 and GFP-Rab29 or mutants, 48 h; basal, or stimulated with poly(dA:dT) or infected with GAS; lysis in 50 mM Tris-HCl pH 8.0, 120 mM NaCl, 1% NP-40, 50 mM NaF; GFP-Trap beads 2 h at 4°C, five washes, anti-Flag immunoblot
[1] = target: T1, GFP-Rab29 Q67L (human (cDNA from HEK293T)) (UniProt O14966)
T1 sequence: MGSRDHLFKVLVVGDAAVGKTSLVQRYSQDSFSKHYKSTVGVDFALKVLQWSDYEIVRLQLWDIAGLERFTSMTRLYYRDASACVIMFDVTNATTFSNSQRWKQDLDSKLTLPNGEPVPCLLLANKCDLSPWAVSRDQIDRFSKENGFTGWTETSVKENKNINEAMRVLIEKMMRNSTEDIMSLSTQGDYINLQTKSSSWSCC

[2] = target: T2, GFP-tagged Rab29 WT (human (cDNA from HEK293T)) (UniProt O14966)
T2 sequence: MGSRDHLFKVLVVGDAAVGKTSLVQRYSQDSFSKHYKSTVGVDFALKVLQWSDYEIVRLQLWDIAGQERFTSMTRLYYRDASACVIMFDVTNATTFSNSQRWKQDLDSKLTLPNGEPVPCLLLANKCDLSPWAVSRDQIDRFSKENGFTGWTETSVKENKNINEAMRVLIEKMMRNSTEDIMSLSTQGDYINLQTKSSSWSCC

[3] = target: T3, GFP-Rab29 T21N (human (cDNA from HEK293T)) (UniProt O14966)
T3 sequence: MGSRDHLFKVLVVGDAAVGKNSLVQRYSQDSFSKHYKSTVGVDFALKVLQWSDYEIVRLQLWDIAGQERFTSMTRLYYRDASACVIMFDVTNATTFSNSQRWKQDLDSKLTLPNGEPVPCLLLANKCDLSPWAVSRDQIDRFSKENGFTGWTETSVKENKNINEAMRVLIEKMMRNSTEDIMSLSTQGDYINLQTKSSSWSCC

binding [1]: binds
binding [2]: binds
binding [3]: binds weakly
B1: Flag-tagged TBC1D9 (protein, UniProt Q6ZT07 1-1266)
chain: MWVNPEEVLLANALWITERANPYFILQRRKGHAGDGGGGGGLAGLLVGTLDVVLDSSARVAPYRILYQTPDSLVYWTIACGGSRKEITEHWEWLEQNLLQTLSIFENENDITTFVRGKIQGIIAEYNKINDVKEDDDTEKFKEAIVKFHRLFGMPEEEKLVNYYSCSYWKGKVPRQGWMYLSINHLCFYSFLMGREAKLVIRWVDITQLEKNATLLLPDVIKVSTRSSEHFFSVFLNINETFKLMEQLANIAMRQLLDNEGFEQDRSLPKLKRKSPKKVSALKRDLDARAKSERYRALFRLPKDEKLDGHTDCTLWTPFNKMHILGQMFVSTNYICFTSKEENLCSLIIPLREVTIVEKADSSSVLPSPLSISTRNRMTFLFANLKDRDFLVQRISDFLQQTTSKIYSDKEFAGSYNSSDDEVYSRPSSLVSSSPQRSTSSDADGERQFNLNGNSVPTATQTLMTMYRRRSPEEFNPKLAKEFLKEQAWKIHFAEYGQGICMYRTEKTRELVLKGIPESMRGELWLLLSGAINEKATHPGYYEDLVEKSMGKYNLATEEIERDLHRSLPEHPAFQNEMGIAALRRVLTAYAFRNPNIGYCQAMNIVTSVLLLYAKEEEAFWLLVALCERMLPDYYNTRVVGALVDQGVFEELARDYVPQLYDCMQDLGVISTISLSWFLTLFLSVMPFESAVVVVDCFFYEGIKVIFQLALAVLDANVDKLLNCKDDGEAMTVLGRYLDSVTNKDSTLPPIPHLHSLLSDDVEPYPEVDIFRLIRTSYEKFGTIRADLIEQMRFKQRLKVIQTLEDTTKRNVVRTIVTETSFTIDELEELYALFKAEHLTSCYWGGSSNALDRHDPSLPYLEQYRIDFEQFKGMFALLFPWACGTHSDVLASRLFQLLDENGDSLINFREFVSGLSAACHGDLTEKLKLLYKMHVLPEPSSDQDEPDSAFEATQYFFEDITPECTHVVGLDSRSKQGADDGFVTVSLKPDKGKRANSQENRNYLRLWTPENKSKSKNAKDLPKLNQGQFIELCKTMYNMFSEDPNEQELYHATAAVTSLLLEIGEVGKLFVAQPAKEGGSGGSGPSCHQGIPGVLFPKKGPGQPYVVESVEPLPASLAPDSEEHSLGGQMEDIKLEDSSPRDNGACSSMLISDDDTKDDSSMSSYSVLSAGSHEEDKLHCEDIGEDTVLVRSGQGTAALPRSTSLDRDWAITFEQFLASLLTEPALVKYFDKPVCMMARITSAKNIRMMGKPLTSASDYEISAMSG
